These are yes or no findings as the source states them, for the method shown. In cells and extracts the contact can be indirect. Some results given as binding are weak or reduced against the parent protein; the word gives no strength. Tags and fused reporters may be left off the sequences shown. One block for each binder: values may come before it.
Columns and labels:
[1] = target: T1, EGFP-C9ORF72 fusion protein (human (endogenous in hiPSC-MG)), Q96LT7; experiment: co-IP; GFP-Trap immunoprecipitation from EGFP-C9ORF72 hiPSC-MG lysate, Western blotting (fig. S6D); conditions: remark: other sources report otherwise
T1 chain: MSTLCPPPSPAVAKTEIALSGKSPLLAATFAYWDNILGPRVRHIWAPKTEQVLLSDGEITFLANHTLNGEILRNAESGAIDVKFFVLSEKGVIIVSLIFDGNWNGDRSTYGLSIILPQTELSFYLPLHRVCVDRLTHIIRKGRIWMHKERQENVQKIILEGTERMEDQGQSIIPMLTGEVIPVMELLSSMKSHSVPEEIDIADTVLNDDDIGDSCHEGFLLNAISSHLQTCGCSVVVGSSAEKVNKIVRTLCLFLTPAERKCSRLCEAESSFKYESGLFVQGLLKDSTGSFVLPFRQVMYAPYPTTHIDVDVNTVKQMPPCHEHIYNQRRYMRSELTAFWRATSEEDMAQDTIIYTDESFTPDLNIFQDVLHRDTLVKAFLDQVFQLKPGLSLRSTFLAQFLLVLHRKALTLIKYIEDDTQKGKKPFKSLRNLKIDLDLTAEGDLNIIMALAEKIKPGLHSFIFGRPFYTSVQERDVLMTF

[2] = target: T2, EGFP-C9ORF72 fusion protein (human (endogenous in hiPSC-MG)) (UniProt Q96LT7); experiment: as above
T2 sequence: T1 chain

binding [1]: binds
B1: WDR41, Q9HAD4 1-459 (protein)
chain: MLRWLIGGGREPQGLAEKSPLQTIGEEQTQNPYTELLVLKAHHDIVRFLVQLDDYRFASAGDDGIVVVWNAQTGEKLLELNGHTQKITAIITFPSLESCEEKNQLILTASADRTVIVWDGDTTRQVQRISCFQSTVKCLTVLQRLDVWLSGGNDLCVWNRKLDLLCKTSHLSDTGISALVEIPKNCVVAAVGKELIIFRLVAPTEGSLEWDILEVKRLLDHQDNILSLINVNDLSFVTGSHVGELIIWDALDWTMQAYERNFWDPSPQLDTQQEIKLCQKSNDISIHHFTCDEENVFAAVGRGLYVYSLQMKRVIACQKTAHDSNVLHVARLPNRQLISCSEDGSVRIWELREKQQLAAEPVPTGFFNMWGFGRVSKQASQPVKKQQENATSCSLELIGDLIGHSSSVEMFLYFEDHGLVTCSADHLIILWKNGERESGLRSLRLFQKLEENGDLYLAV

binding [2]: binds
B2: SMCR8 (protein, UniProt Q8TEV9 1-937)
chain: MISAPDVVAFTKEEEYEEEPYNEPALPEEYSVPLFPFASQGANPWSKLSGAKFSRDFILISEFSEQVGPQPLLTIPNDTKVFGTFDLNYFSLRIMSVDYQASFVGHPPGSAYPKLNFVEDSKVVLGDSKEGAFAYVHHLTLYDLEARGFVRPFCMAYISADQHKIMQQFQELSAEFSRASECLKTGNRKAFAGELEKKLKDLDYTRTVLHTETEIQKKANDKGFYSSQAIEKANELASVEKSIIEHQDLLKQIRSYPHRKLKGHDLCPGEMEHIQDQASQASTTSNPDESADTDLYTCRPAYTPKLIKAKSTKCFDKKLKTLEELCDTEYFTQTLAQLSHIEHMFRGDLCYLLTSQIDRALLKQQHITNFLFEDFVEVDDRMVEKQESIPSKPSQDRPPSSSLEECPIPKVLISVGSYKSSVESVLIKMEQELGDEEYKEVEVTELSSFDPQENLDYLDMDMKGSISSGESIEVLGTEKSTSVLSKSDSQASLTVPLSPQVVRSKAVSHRTISEDSIEVLSTCPSEALIPDDFKASYPSAINEEESYPDGNEGAIRFQASISPPELGETEEGSIENTPSQIDSSCCIGKESDGQLVLPSTPAHTHSDEDGVVSSPPQRHRQKDQGFRVDFSVENANPSSRDNSCEGFPAYELDPSHLLASRDISKTSLDNYSDTTSYVSSVASTSSDRIPSAYPAGLSSDRHKKRAGQNALKFIRQYPFAHPAIYSLLSGRTLVVLGEDEAIVRKLVTALAIFVPSYGCYAKPVKHWASSPLHIMDFQKWKLIGLQRVASPAGAGTLHALSRYSRYTSILDLDNKTLRCPLYRGTLVPRLADHRTQIKRGSTYYLHVQSMLTQLCSKAFLYTFCHHLHLPTHDKETEELVASRQMSFLKLTLGLVNEDVRVVQYLAELLKLHYMQESPGTSHPMLRFDYVPSFLYKI
